Source: patent US20200291126A1 (EUTILEX, published 2020)
These are yes or no findings as the source states them, for the method shown. Some binding calls cover weakened binding; strength is not graded here.

Columns and labels:
[1] = biological target: T1, V-Set And Immunoglobulin Domain Containing 4 (VSIG4) (human) (UniProt Q9Y279); assay: SPR (surface plasmon resonance); the sheet and the text give neither the analyte concentrations nor which partner is immobilised; the time axis has no unit
T1 sequence (looked up): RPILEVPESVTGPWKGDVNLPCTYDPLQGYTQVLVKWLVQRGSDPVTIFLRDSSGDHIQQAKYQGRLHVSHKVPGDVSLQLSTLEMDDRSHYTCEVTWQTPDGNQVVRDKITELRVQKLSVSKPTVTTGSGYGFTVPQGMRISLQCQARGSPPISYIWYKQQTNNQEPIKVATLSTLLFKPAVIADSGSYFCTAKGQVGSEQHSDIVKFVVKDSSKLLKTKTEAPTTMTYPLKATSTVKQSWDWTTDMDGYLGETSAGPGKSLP

[2] = biological target: T1, V-Set And Immunoglobulin Domain Containing 4 (VSIG4) (human); assay: SPR

binding [1]: binds
binding [2]: binds
B1: EU103.2 antibody (antibody, V domains shown)
VH: QVQLQESGPGLVKPSQTLSLTCSFSGISLTTSGMGVGWIRQPPGKGLEWLADIFWDDNKYYNPSLKSRVTISVDTSKNQFSLKLSSVTAADTAVYYCVRVYYKNDGYFDVWGQGTLVTVSS
VL: EIVMTQSPATLSVSPGERATLSCRASKSVTTSGYSFMHWYQQKPGQAPRLLIYLASNLEPGIPARFSGSGSGTEFTLTISSLQSEDFAVYYCQHSRELPYTFGQGTKLEIK
notes: also called humanized anti-VSIG4 antibody generated from mouse anti-VSIG4 antibody mu6H8
